Results published in paper PMC3818223, “A RhoC Biosensor Reveals Differences in the Activation Kinetics of RhoA and RhoC in Migrating Cells” (PLoS ONE, 2013).
These are yes or no findings as the source states them, for the method shown. In cells and extracts the contact can be indirect. Some results given as binding are weak or reduced against the parent protein; the word gives no strength.

Sequences of proteins named here, by UniProt entry; tags and fusion partners are left off.
UniProt P08134: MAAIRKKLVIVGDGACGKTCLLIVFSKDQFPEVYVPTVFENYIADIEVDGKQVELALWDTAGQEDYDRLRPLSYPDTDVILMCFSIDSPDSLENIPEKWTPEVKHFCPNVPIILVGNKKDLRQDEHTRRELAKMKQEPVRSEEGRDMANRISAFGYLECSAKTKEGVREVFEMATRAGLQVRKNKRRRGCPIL

Molecular target: RhoC, full length, wild type, as the C-terminal module of the RhoC FLARE.sc biosensor (UniProt P08134)
Test: FRET or BRET; intramolecular FRET of the single-chain biosensor (binding domain-mCerulean-linker-mVenus-RhoC); fluorometry of cold, live HEK293T cell suspensions in PBS 48 h after transfection, excitation 433 nm, emission 450-600 nm, FRET/CFP ratio

B1: ROCK1 Rho binding domain (RBD, amino acids 905-1046), as the N-terminal module of the RhoC FLARE.sc biosensor (domain or fragment, UniProt Q13464 905-1046, looked up)
chain: ARGLLEEQYFELTQESKKAASRNRQEITDKDHTVSRLEEANSMLTKDIEILRRENEELTEKMKKAEEEYKLEKEEEISNLKAAFEKNINTERTLKTQAVNKLAEIMNRKDFKIDRKKANTQDLRKKEKENRKLQLELNQERE
notes: It is split from RhoC here so that the intramolecular pair can be written; Subcloned into pTriEX-HisMyc4 (Novagen), which may add His and Myc tags; source: HEK293T, transfected (Lipofectamine2000), in live cell suspension; not shown: monomeric Cerulean, C-terminal, kept
- binding: binds
